Laboratory results: PubChem BioAssay AID624297 (National Center for Advancing Translational Sciences (NCATS), 2012)
Among all 340,000 compounds or so, about 6,200 (1.8%) were called active. This list was built around the results that the source calls inconclusive (neither active nor inactive); the mix of calls is not that of the screen. Calls come from the whole dose curve; as a rule, active = well fitted activation curve with a large enough effect; inconclusive = small, poorly fitted or top-dose-only effect; inactive = no such curve, though single readings can be large or run the other way. A potency beside an inconclusive call is a rough fit, not a confirmed value.

Test: A quantitative high throughput screen for small molecules that induce DNA re-replication in SW480 colon adenocarcinoma cells. For re-replication activation: % of control where 0% means no effect. Note: nearly all actives have a fitted effect of over 55% in size.
Conditions: Hoechst DNA content imaging, 48 h; re-replication activation: at 46.1 µM (top of the series) unless noted
In short: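 Readout is total intensity of Hoechst-stained nuclei, excited at 405 nm and collected at 500-530 nm. Compound treatment lasted 48 hr at 37 C in 5% CO2 before staining.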
Potency is the fitted concentration of half-maximal effect.

Structure (SMILES) | Potency | re-replication activation
O=C(C1COc2ccccc2O1)N1CCN(Cc2ccccc2)CC1 (centres undefined) | inconclusive: 29.1 µM [activator, single point] | –
O=C(c1cccc(Oc2ccc([N+](=O)[O-])cc2Cl)c1)N1CCCCC1 | – | inactive: 5.48%
CO/N=C/NC(=O)c1ccc([N+](=O)[O-])c(CS(=O)(=O)c2ccc(Cl)cc2)c1 | inconclusive: 29.1 µM [activator, single point] | –
O=C(CSc1nc(COc2ccccc2)nc2ccccc12)NC1CCCC1 | inconclusive: 9.2 µM [activator, partial curve, poor fit] | –
COc1cccc(CC2(CO)CCCN(Cc3cc4ccccc4[nH]3)C2)c1 (centres undefined) | inconclusive: 18.4 µM [activator, single point] | –
CCCn1c(N)c(N(CCOC)C(=O)c2ccc(-c3ccc(Cl)cc3)o2)c(=O)[nH]c1=O | – | inactive: -0.765%
CC(=O)c1cccc(OCC(=O)Nc2ccccc2N2CCOCC2)c1 | – | inactive: -3.95%
COc1cc(OC)cc(-c2c(-c3cccs3)c3cc(-c4ccc(SC)cc4)ccc3n2C)c1 | inconclusive: 29.1 µM [activator, single point] | –
CC(Oc1ccc2c(-c3ccccc3)cc(=O)oc2c1)C(=O)NCCCn1ccnc1 (centres undefined) | – | inactive: -4.5%
Cc1ccc(C)c(N2CCN(CCCNC(=O)Cn3cccc3C(=O)c3ccccc3)CC2)c1 | inconclusive: 18.4 µM [activator, single point] | –
N=c1c2c(-c3ccccc3)c(-c3ccccc3)n(Cc3ccco3)c2ncn1CCO | – | inactive: -4.66% [at 9.22 µM]
Cc1coc2c1C(=O)C(=O)c1c-2ccc2c(C)cccc12 | active: 5.17 µM | –
COc1cc(C2C(C#N)=C(N)Oc3cc(N)ccc32)cc(OC)c1OC (centres undefined) | active: 1.16 µM | –
CC1=CC(=C(C#N)C#N)C=C(C)N1CCC(C)C | inconclusive: 0.0046 µM [activator, full curve, poor fit] | –
Cn1cnc2c(ncn2C2OC(CO)C(O)C2O)c1=S (centres undefined) | – | inactive: -2.48%
COc1cc(/C=N/NC(=O)CNC(=O)c2ccncc2)ccc1O | inconclusive: 25.9 µM [activator, single point] | –
CCc1ccc(N2CC(C(=O)Nc3ccc(C)c(S(=O)(=O)N4CCOCC4)c3)CC2=O)cc1 (centres undefined) | – | inactive: 0.45%
Cc1ccc(-c2nn(-c3ccccc3)cc2NC(=O)CCl)cc1 | active: 18.4 µM | –
COc1ccc(OC)c(Nc2nc3ccccc3n3cnnc23)c1 | inconclusive: 23.1 µM [activator, single point] | –
COCCNC(=S)N(CCc1c(C)[nH]c2ccc(Cl)cc12)Cc1cccs1 | inconclusive: 29.1 µM [activator, single point] | –
Cc1cc(C)n2c(=S)[nH]nc2n1 | inconclusive: 29.1 µM [activator, single point] | –
O=C(N/N=C\c1cccc([N+](=O)[O-])c1O)C1COc2ccccc2O1 (centres undefined) | inconclusive: 29.1 µM [activator, single point] | –
Cc1ccc(C(C)C)c(OCC(O)CN2CCc3ccccc3C2)c1 (centres undefined) | inconclusive: 20.6 µM [activator, single point] | –

Arranged by formula weight (low to high): some entries from above.
Structure (SMILES) | Potency | re-replication activation
O=C(C1COc2ccccc2O1)N1CCN(Cc2ccccc2)CC1 (centres undefined) | inconclusive: 29.1 µM [activator, single point] | –
O=C(N/N=C\c1cccc([N+](=O)[O-])c1O)C1COc2ccccc2O1 (centres undefined) | inconclusive: 29.1 µM [activator, single point] | –
COc1cc(OC)cc(-c2c(-c3cccs3)c3cc(-c4ccc(SC)cc4)ccc3n2C)c1 | inconclusive: 29.1 µM [activator, single point] | –

Further records:

Structure (SMILES) | Potency | re-replication activation
Nc1nc(CN2CCN(c3ccccn3)CC2)nc(Nc2ccc(Cl)cc2)n1 | – | inactive: 10.7%
O=C(O)/C(=C\c1cn(-c2ccccc2)nc1-c1cccnc1)NC(=O)c1ccccc1 | – | inactive: -5.8%
O=C(O)[C@H]1C[C@@H](CP(=O)(O)O)CCN1 | – | inactive: 1.35%
COc1ccccc1N1CCN(C2CCCN(C(=O)c3ccoc3)C2)CC1 (centres undefined) | inconclusive: 0.0891 µM [activator, full curve, poor fit] | –
C=CCOc1c(/C=N\NC(N)=O)cccc1OC | inconclusive: 13 µM [activator, single point] | –
Cc1ccc(N(C(=O)c2sc(C)nc2C)C(C(=O)NCc2ccco2)c2ccccc2)cc1 (centres undefined) | – | inactive: -16.5%
Cc1sc(NC(=O)/C=C/c2ccc(C(C)C)cc2)c(C#N)c1C | inconclusive: 4.61 µM [activator, partial curve, poor fit] | –
OCCCNCc1ccc(N(c2ccccc2)c2ccccc2)cc1 | inconclusive: 20.6 µM [activator, single point] | –
c1ccc(Nc2nc(N3CCNCC3)nc(N3CCOCC3)n2)cc1 | inconclusive: 20.6 µM [activator, single point] | –
CCC(COC)NCc1cn(-c2ccc(OC)cc2)nc1-c1cccc(F)c1 (centres undefined) | inconclusive: 25.9 µM [activator, single point] | –
COc1cc(Cl)c(CN2CCCC(CO)(Cc3ccccc3F)C2)cc1OC (centres undefined) | inconclusive: 32.6 µM [activator, partial curve, poor fit] | –
CC1=NN2C(=N)/C(=C\c3cc(C)n(-c4cccc(C)c4)c3C)C(=O)N=C2S1 | – | inactive: -4.42%
Cc1ccnc(N/C=C/C(=O)c2ccc(Br)cc2)c1 | inconclusive: 29.1 µM [activator, partial curve, poor fit] | –
OC[C@@H](O)[C@H](O)C(/C=N/Nc1ccccc1)=N\Nc1ccccc1 | – | inactive: -1.84%
Fc1ccc(-c2cc(-c3cccs3)cc(-c3ccccc3)n2)cc1 | inconclusive: 23.1 µM [activator, single point] | –
Cc1nn(C)c(C(=O)Nc2ccn(Cc3ccccc3F)n2)c1[N+](=O)[O-] | – | inactive: -0.992%
O=C(/C=C/Nc1ccc(S(=O)(=O)Nc2ncccn2)cc1)c1ccc(Cl)c(Cl)c1 | – | inactive: 3.74%
COc1ccc(C(CNc2ncnc3sc(C)c(C)c23)N(C)C)cc1 (centres undefined) | inconclusive: 29.1 µM [activator, single point] | –
Cc1cccc(NCc2ccc(O)c3ncccc23)c1 | inconclusive: 16.4 µM [activator, single point] | –
NC(=O)Oc1ccc(Cc2ccccc2)cc1 | – | inactive: 5.13%
CCCCSc1nc2c(c(C(F)(F)F)c1C#N)CCC2 | inconclusive: 32.6 µM [activator, partial curve, poor fit] | –
O=C(NC(=O)c1c(F)cccc1F)Nc1cccc(Oc2ncc(Cl)cn2)c1 | – | inactive: 12%
COc1ccccc1CCC(=O)OCC(=O)Nc1cccc(S(=O)(=O)N2CCCCC2)c1 | inconclusive: 23.1 µM [activator, partial curve, poor fit] | –

Structure (SMILES) | Potency | re-replication activation
CCCCn1c(N)c(N(CC(C)C)C(=O)c2ccc(-n3c(C)ccc3C)cc2)c(=O)[nH]c1=O | inconclusive: 23.1 µM [activator, single point] | –
CNC(=S)N/N=C/c1ccco1 | active: 16.4 µM | –
O=C(NNC(=O)c1ccccc1C(=O)O)c1ccc(O)cc1 | – | inactive: -3.95%
COc1ccc(N(C(=O)c2snc(C(N)=O)c2N)C(C(=O)NC2CCCC2)c2ccc3ncccc3c2)cc1 (centres undefined) | inconclusive: 29.1 µM [activator, single point] | –
Cc1ccc(C(=O)NC(Cc2cccc(F)c2)C(=O)O)cc1 (centres undefined) | inconclusive: 0.517 µM [activator, full curve, poor fit] | –
Cc1ccc(/C=N/N=C2/NC(=O)C(CC(=O)Nc3ccc(Cl)cc3)S2)o1 (centres undefined) | inconclusive: 39.8 µM [activator, partial curve, poor fit] | –
O=C(Oc1ccccc1/C=C\C(=O)c1cc2ccccc2o1)c1ccccc1 | inconclusive: 20.6 µM [activator, single point] | –
COc1ccc(/C=N/Nc2nc(-c3ccc(Cl)cc3)cc(C(F)(F)F)n2)c(OC)c1 | – | inactive: -9.48%
O=C(NCCCN1CCOCC1)c1ccccc1N1C(=O)[C@@H]2Cc3c([nH]c4ccccc34)C(c3ccc(F)cc3)N2C1=O (some centres undefined) | – | inactive: -2.26%
COc1ccccc1Nc1n[nH]c(=S)s1 | – | inactive: -3.45%
COc1cccc(Oc2ccc(C(F)(F)F)cc2NC(=O)CCc2nc3ccccc3c(=O)[nH]2)c1 | inconclusive: 20.6 µM [activator, single point] | –
Oc1cc(CNC2CCCCC2)c(O)cc1CNC1CCCCC1 | inconclusive: 16.4 µM [activator, partial curve] | –
C=CCNC(=S)Nc1sc2c(c1C(=O)OCC)CC(C(C)C)OC2 (centres undefined) | inconclusive: 16.4 µM [activator, single point] | –
O=C(Nc1ccc(Br)cc1F)c1ccc2c(c1)N(Cc1ccccc1)C(=O)CS2=O (centres undefined) | – | inactive: 11%
CSc1nc2ccccc2cc1/C=C(\C#N)c1ccc(Cl)c(Cl)c1 | inconclusive: 29.1 µM [activator, single point] | –
Cc1ccc(SCC(=O)NC(=O)NC2CCCC2)c(C)c1 | inconclusive: 4.61 µM [activator, single point] | –
CC(C)C[C@H](N)C(=O)N1CCC(C(=O)N[C@H](C(=O)NCc2ccc(F)cc2)C(C)C)CC1 | inconclusive: 18.4 µM [activator, single point] | –
CCC(C)[C@H](NC(=O)OC(C)(C)C)C(=O)N/N=C/C1=Cc2ccccc2OC1 (some centres undefined) | inconclusive: 29.1 µM [activator, single point] | –
COCc1cc(C)nc(SCC(=O)Oc2ccc(Cl)cc2)c1C#N | inconclusive: 16.4 µM [activator, partial curve] | –
CC1CC1C(=O)Nc1cc(S(=O)(=O)N2CCOCC2)ccc1N1CCCC1 (centres undefined) | inconclusive: 25.9 µM [activator, partial curve, poor fit] | –
COc1ccc(Oc2nc(-c3ccccn3)nc3ccccc23)cc1 | inconclusive: 3.66 µM [activator, full curve, poor fit] | –
CS(=O)(=O)c1sc2nc(-c3cccs3)cc(-c3ccccc3)c2c1N | inconclusive: 20.6 µM [activator, single point] | –
CN1CCN(S(=O)(=O)c2ccc(N(C)Cc3ccc(C(F)(F)F)cc3)c([N+](=O)[O-])c2)CC1 | inconclusive: 31.6 µM [activator, partial curve, poor fit] | –
